Measured values published in patent US11951210B2, “Methods for making giant vesicles and their use” (THE JOHNS HOPKINS UNIVERSITY, priority 2017, dated 2024).
At least one structure is not confirmed: it was looked up by name or label, or the drawing left a doubt.

Tested on: Rac1
Test: Mimetic Rac1 signaling pathway in GUVs triggered by external rapamycin
Type: biochemical
Conditions: GUV with membrane-anchored Hisx6-mCherry-FKBP and mCherry-Rac1WT-Hisx8, confocal microscopy

CO[C@H]1C[C@@H]2CC[C@@H](C)[C@@](O)(O2)C(=O)C(=O)N2CCCC[C@H]2C(=O)O[C@H]([C@H](C)C[C@@H]2CC[C@@H](O)[C@H](OC)C2)CC(=O)[C@H](C)/C=C(\C)[C@@H](O)[C@@H](OC)C(=O)[C@H](C)C[C@H](C)/C=C/C=C/C=C/1C [rapamycin]
Rac1 activation (CFP-FRB-Vav2DH translocation to membrane, YFP-PAK1 recruitment): activating Rac1 at the membrane
